Laboratory results reported in PubChem BioAssay AID504834 (National Center for Advancing Translational Sciences (NCATS), 2011).
In all, about 320,000 compounds went through this assay and about 22,000 (6.9%) were called active. Inconclusive means that the source gave no clear call. Such entries were picked first, then a sample of the others. Calls follow the shape of the dose curve; as a rule, active = well fitted inhibition curve with a large enough effect; inconclusive = small, poorly fitted or top-dose-only effect, or another doubt; inactive = no such curve, though single readings can be large or run the other way. Where the call is inconclusive, the potency comes from a doubtful curve fit.

Test: Primary qHTS for delayed death inhibitors of the malarial parasite plastid, 96 hour incubation
Conditions: P. falciparum luciferase reporter growth; series mostly up to 28.7 µM; activity change, negative = inhibition: at the top concentration
Outline: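 Luminescence readout: decreased luciferase signal marks inhibited growth of reporter-expressing P. falciparum in infected red cells (2% hematocrit, 0.05% parasitemia final), exposed to compound two generations (96 h, 37 C, 5% CO2).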
% is scaled to controls: 0 for no effect and ±100 for the full control effect; potency is read from the fitted curve at half-maximal effect.

| SMILES | activity change, negative = inhibition | Potency |
| --- | --- | --- |
| O=C(CC1C(=O)NCCN1CC1CCCCC1)NC1(c2ccccc2)CC1 (stereo unspecified) | inactive: -4.97% | – |
| COc1ccc(C)cc1NC(=O)C1CCN(S(=O)(=O)c2cccs2)CC1 | – | inconclusive: 2.94 µM [inhibitor, single point] |
| CCCn1nnc(NC(=O)C(C)Oc2ccc(Cl)cc2Cl)n1 (stereo unspecified) | – | inconclusive: 10.4 µM [inhibitor, single point] |
| Cc1cc(OCCN2CCCC2)cc(C(C)C)c1 | – | active: 10.4 µM |
| CCC(=O)Nc1cccc(C(=O)N(Cc2ccccc2)Cc2ccccc2)c1 | – | inconclusive: 18.5 µM [inhibitor, single point] |
| CCOC(=O)N1CCN(C(=O)/C(=C/c2ccccc2OC)NC(=O)c2ccccc2)CC1 | – | inconclusive: 10.4 µM [inhibitor, single point] |
| CCOC(=O)c1[nH]c2ccc(F)cc2c1NC(=O)c1cc(OC)c(OC)c(OC)c1 | inactive: 1.82% | – |
| COc1ccc(C(=O)NC2CCN(Cc3ccccc3)C2)cc1S(=O)(=O)N1CCOCC1 (stereo unspecified) | – | inconclusive: 18.5 µM [inhibitor, single point] |
| CCOc1ccccc1/C=N/n1c(C)nc2ccccc2c1=O | inactive: -1.33% | – |
| CN(Cc1cccc(-n2cccn2)c1)C(=O)CCc1nnc(C2CCCCC2)o1 | – | inconclusive: 13.1 µM [inhibitor, single point] |
| Cc1ccc(-n2[nH]c(C)c(/C=N/NC(=O)c3ccc(O)cc3O)c2=O)cc1 | – | inconclusive: 18.5 µM [inhibitor, single point] |
| CN(C)S(=O)(=O)c1cc(S(=O)(=O)N(C)C)c(Cl)cc1N | – | inconclusive: 18.5 µM [inhibitor, single point] |
| COc1ccc(OC)c(N(C(=O)c2snc(C(N)=O)c2N)C(C(=O)NCC2CCCO2)c2ccc3ncccc3c2)c1 (stereo unspecified) | inactive: 12.9% | – |
| CCCCn1c(=O)[nH]c(=O)c2c1nc(Cn1ncc(Cl)c(Cl)c1=O)n2CCC | – | inconclusive: 13.1 µM [inhibitor, single point] |
| CCOC(=O)CNC(=O)CN1C(=O)CCSc2ccccc21 | – | active: 11.7 µM |
| Cc1ccccc1NC(=S)N1CCCC1 | – | inconclusive: 13.1 µM [inhibitor, partial curve] |
| CC(=O)c1c(C)[nH]c(C(=O)OCC(=O)Nc2cc(S(=O)(=O)N3CCCC3)ccc2Cl)c1C | inactive: 24.5% | – |
| CCc1cccc2c(C(=O)COC(=O)c3cnc(C)cn3)c[nH]c12 | inactive: -25.8% | – |
| Cc1csc(N(C(=O)c2ccccc2F)c2ccccc2)n1 | inactive: 3.49% | – |
| COc1ccc(OCCN2CCN(S(=O)(=O)c3ccccc3C(F)(F)F)CC2)cc1 | – | inconclusive: 13.1 µM [inhibitor, single point] |
| CSc1ccc(CNCCCN(C)C)cc1 | inactive: 63.2% | – |
| COc1cccc(N2CCN(C(=O)CCc3nnc4ccc(N5CCOCC5)nn34)CC2)c1 | – | active: 11.7 µM |
| O=C(Nc1cccc(S(=O)(=O)NC2=NCCCCC2)c1)C1COc2ccccc2O1 (stereo unspecified) | – | inconclusive: 16.5 µM [inhibitor, single point] |
| O=C1C=CC(=O)N1CCCCCCN1C(=O)C=CC1=O | – | inconclusive: 18.5 µM [inhibitor, partial curve, poor fit] |

Looked up above:
Potency, COc1ccc(C)cc1NC(=O)C1CCN(S(=O)(=O)c2cccs2)CC1 reads inconclusive: 2.94 µM [inhibitor, single point]
Potency, Cc1ccc(-n2[nH]c(C)c(/C=N/NC(=O)c3ccc(O)cc3O)c2=O)cc1 reads inconclusive: 18.5 µM [inhibitor, single point]
activity change, negative = inhibition, CSc1ccc(CNCCCN(C)C)cc1 reads inactive: 63.2%
Potency, CCCCn1c(=O)[nH]c(=O)c2c1nc(Cn1ncc(Cl)c(Cl)c1=O)n2CCC reads inconclusive: 13.1 µM [inhibitor, single point]
Potency, COc1ccc(C(=O)NC2CCN(Cc3ccccc3)C2)cc1S(=O)(=O)N1CCOCC1 (stereo unspecified) reads inconclusive: 18.5 µM [inhibitor, single point]

Additional results

| SMILES | activity change, negative = inhibition | Potency |
| --- | --- | --- |
| Cc1sc(NC(=O)CN2C(=O)NC3(CCCC3)C2=O)nc1-c1ccc(F)cc1 | inactive: 0.021% | – |
| COc1ccc(C(NC(C)=O)c2c(O)ccc3ccccc23)cc1OC (stereo unspecified) | inactive: -96.3% | – |
| COc1ccc2nc(SCC(=O)N3CCCCC3)c(C#N)cc2c1 | inactive: 2.74% | – |
| O=C(Nc1ccccc1)c1nc[nH]c1C(=O)N1CCc2ccccc2C1 | – | inconclusive: 5.86 µM [inhibitor, single point] |
| O=S(=O)(NCc1cccs1)c1ccc(Br)cc1 | inactive: 0% | – |
| CC1CN(C2=Nc3cccc4cccc2c34)CC(C)O1 (stereo unspecified) | inactive: -4.09% | – |
| Cc1ccc(CNc2ccc(N3CCOCC3)c(Cl)c2)cc1 | – | active: 10.4 µM |
| COc1cc(OC)cc(-c2c(-c3ccc(F)cc3)c3cc(-c4cnc(OC)nc4)ccc3n2C)c1 | – | active: 4.65 µM |
| Cc1c(NC(=O)COC(=O)C2CC3C=CC2C3)c(=O)n(-c2ccccc2)n1C (stereo unspecified) | – | inconclusive: 2.33 µM [inhibitor, partial curve, poor fit] |
| Cc1onc(-c2ccccc2)c1C(=O)OCc1nnc(-c2ccccc2)o1 | – | inconclusive: 18.5 µM [inhibitor, single point] |
| Cc1cc(C)c2c(=O)[nH]n(C3CCOC(C)(C)C3)c2n1 (stereo unspecified) | – | inconclusive: 7.38 µM [inhibitor, partial curve, poor fit] |
| CCN=c1sc(C(=O)Nc2ccccc2)c(C)n1CC | – | inconclusive: 2.94 µM [inhibitor, partial curve, poor fit] |
| C[C@@H](NC(=O)c1nc[nH]c1C(=O)NCc1ccc(CNC(=O)OC(C)(C)C)cc1)c1ccccc1 | – | inconclusive: 5.22 µM [inhibitor, partial curve] |
| Cc1c(NC(=O)c2ccc(N(Cc3ccccc3)S(C)(=O)=O)cc2)c(=O)n(-c2ccccc2)n1C | inactive: 28.2% | – |
| Cn1c(Cn2c(=O)sc3ccccc32)nnc1SCC(=O)Nc1ccc(F)cc1 | – | inconclusive: 1.04 µM [inhibitor, partial curve, poor fit] |
| COc1ccc(S(=O)(=O)N2CCCCCC2)cc1C(=O)OCC(=O)NC(C)(C)C | inactive: 3.57% | – |
| O=C(CSc1nnnn1-c1ccc(F)cc1)NCc1cccs1 | – | inconclusive: 13.1 µM [inhibitor, partial curve] |
| CCOc1ccc(S(N)(=O)=O)cc1-c1nc2c(C(C)(C)C)nn(C)c2c(=O)[nH]1 | – | inconclusive: 0.0029 µM [inhibitor, full curve, poor fit] |
| COc1ccc(OC)c2[nH]c(C(=O)N/N=C/c3ccccc3O)cc12 | – | inconclusive: 13.1 µM [inhibitor, single point] |
| CSCC[C@H](NC(=O)[C@H]1N2C(=O)c3ccccc3C2SC1(C)C)C(=O)NCc1ccncc1 (stereo partly specified) | – | inconclusive: 18.5 µM [inhibitor, single point] |
| BrC(/C=N/N1CCN(Cc2ccccc2)CC1)=C/c1ccccc1 | inactive: 4.61% | – |
| Cc1ccc(CNC(=O)C(=O)NCC2CCCN2S(=O)(=O)c2cc(C)ccc2C)cc1 (stereo unspecified) | – | inconclusive: 9.28 µM [inhibitor, single point] |
| CC(=O)OCC1=C(C(=O)O)N2C(=O)C(NC(=O)c3ccc(COc4c(C)cccc4Cl)o3)C2SC1 (stereo unspecified) | – | inconclusive: 0.0738 µM [inhibitor, full curve, poor fit] |
| CCN(CC)c1c2c(c(C#N)c3nc4ccccc4n13)CCC2 | – | inconclusive: 6.57 µM [inhibitor, partial curve] |

| SMILES | activity change, negative = inhibition | Potency |
| --- | --- | --- |
| O=C(Nc1c(F)cc(F)cc1Br)c1cccnc1 | inactive: 50.1% | – |
| COc1ccc(C(=O)OCC(=O)N2CC(=O)Nc3ccccc32)cc1Br | – | inconclusive: 1.31 µM [inhibitor, full curve] |
| CNC(=O)N(c1ccccc1)c1ccccc1 | inactive: 6.77% | – |
| CC(c1ccc(F)cc1)n1c(Cn2ncc3ccccc3c2=O)n[nH]c1=S (stereo unspecified) | – | inconclusive: 9.28 µM [inhibitor, partial curve, poor fit] |
| CCOC(=O)N1CCN(C(=O)C2CC(c3ccc(F)cc3)=NO2)CC1 (stereo unspecified) | – | active: 4.65 µM |
| CC(c1ccncn1)N(C)Cc1nc(-c2ccc(C(F)(F)F)cc2)no1 (stereo unspecified) | – | inconclusive: 11.7 µM [inhibitor, single point] |
| CC(=O)Nc1ccc(NC(=O)C2CCCN2C(=O)Nc2ccc(F)cc2)cc1 (stereo unspecified) | inactive: 23.2% | – |
| COc1cc(NC(=O)CN(c2cc(C)cc(C)c2)S(=O)(=O)c2c(C)noc2C)cc(OC)c1 | – | inconclusive: 18.5 µM [inhibitor, single point] |
| Cn1cc(CN2CCCC(C(=O)c3cc(F)ccc3F)C2)c2ccccc21 (stereo unspecified) | – | inconclusive: 9.28 µM [inhibitor, partial curve] |
| COc1ccc(CNC(=O)C(c2ccco2)N(C(=O)c2csnn2)c2cccc(C)c2C)cc1 (stereo unspecified) | – | inconclusive: 18.5 µM [inhibitor, single point] |
| CC(=O)c1c(C)oc2ccc(O)c(CN3CCOCC3)c12 | – | active: 7.38 µM |
| COC(=O)c1ccc[n+](CC(=O)Nc2ccc(OC(F)F)cc2)c1 | inactive: 18% | – |
| Cn1c(=O)c(=O)n(C)c2cc(S(=O)(=O)Nc3ccc4c(c3)OCCO4)ccc21 | inactive: 35.9% | – |
| Cc1ccc(OCCC(=O)OCC(=O)NNC(=O)c2ccccc2)cc1 | inactive: 16.7% | – |
| O=C(c1cc2ccccc2o1)N1CCN(S(=O)(=O)c2cccs2)CC1 | – | inconclusive: 13.1 µM [inhibitor, single point] |
| O=C(NCCCc1ccccc1)C1CCN(c2nnc(-n3cccc3)s2)CC1 | – | inconclusive: 0.465 µM [inhibitor, full curve, poor fit] |
| CCOP(=O)(OCC)C(C)(C)NC(=O)c1cc([N+](=O)[O-])cc([N+](=O)[O-])c1 | – | inconclusive: 0.586 µM [inhibitor, full curve] |
| CCCS(=O)(=O)N1CCC(C(=O)N2CCN(Cc3ccccc3)CC2)CC1 | – | inconclusive: 11.7 µM [inhibitor, single point] |
| Cc1ccc(C(C)(C)C)cc1S(=O)(=O)N1CCC(C(=O)N2CCN(c3ccc(O)cc3)CC2)CC1 | – | active: 10.4 µM |
| S=C(NCC1CCCO1)N1CCN(Cc2ccccc2)CC1 (stereo unspecified) | – | inconclusive: 18.5 µM [inhibitor, single point] |
| Cc1ccc(S(=O)(=O)N2CCN(c3ncnc4ccccc34)CC2)cc1 | – | inconclusive: 10.4 µM [inhibitor, single point] |
| CCOC(=O)c1cnc2ccc(C)cc2c1NCCO | – | inconclusive: 11.7 µM [inhibitor, partial curve, poor fit] |
| CCOC(=O)Cc1nnc(NC(=O)C23CC4CC(CC(C4)C2)C3)s1 | – | inconclusive: 14.7 µM [inhibitor, partial curve, poor fit] |
